Measured values from the supplement of paper PMC12823440, “Inhibitors supercharge kinase turnover through native proteolytic circuits” (Nature, 2025).
Where a name gives a salt, the structure may show the parent alone. The list shows a part of the results. The calls rarely recur for the same compound in another form.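 In K562 cells expressing nanoluciferase-fused kinases, luminescence was recorded at 4 h intervals between 2 and 18 h, normalized as percent of control with DMSO at 100% and a positive control at 0%. A significant (2 sigma) signal drop marks a time point as decreased. The authors' rule for a hit is not shown and takes in more than the number of time points.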

Amino acid sequences for entries named in this document (tags omitted). A change or cut given only in a name is not applied to a line headed by its entry.
UniProt Q01974, whole entry: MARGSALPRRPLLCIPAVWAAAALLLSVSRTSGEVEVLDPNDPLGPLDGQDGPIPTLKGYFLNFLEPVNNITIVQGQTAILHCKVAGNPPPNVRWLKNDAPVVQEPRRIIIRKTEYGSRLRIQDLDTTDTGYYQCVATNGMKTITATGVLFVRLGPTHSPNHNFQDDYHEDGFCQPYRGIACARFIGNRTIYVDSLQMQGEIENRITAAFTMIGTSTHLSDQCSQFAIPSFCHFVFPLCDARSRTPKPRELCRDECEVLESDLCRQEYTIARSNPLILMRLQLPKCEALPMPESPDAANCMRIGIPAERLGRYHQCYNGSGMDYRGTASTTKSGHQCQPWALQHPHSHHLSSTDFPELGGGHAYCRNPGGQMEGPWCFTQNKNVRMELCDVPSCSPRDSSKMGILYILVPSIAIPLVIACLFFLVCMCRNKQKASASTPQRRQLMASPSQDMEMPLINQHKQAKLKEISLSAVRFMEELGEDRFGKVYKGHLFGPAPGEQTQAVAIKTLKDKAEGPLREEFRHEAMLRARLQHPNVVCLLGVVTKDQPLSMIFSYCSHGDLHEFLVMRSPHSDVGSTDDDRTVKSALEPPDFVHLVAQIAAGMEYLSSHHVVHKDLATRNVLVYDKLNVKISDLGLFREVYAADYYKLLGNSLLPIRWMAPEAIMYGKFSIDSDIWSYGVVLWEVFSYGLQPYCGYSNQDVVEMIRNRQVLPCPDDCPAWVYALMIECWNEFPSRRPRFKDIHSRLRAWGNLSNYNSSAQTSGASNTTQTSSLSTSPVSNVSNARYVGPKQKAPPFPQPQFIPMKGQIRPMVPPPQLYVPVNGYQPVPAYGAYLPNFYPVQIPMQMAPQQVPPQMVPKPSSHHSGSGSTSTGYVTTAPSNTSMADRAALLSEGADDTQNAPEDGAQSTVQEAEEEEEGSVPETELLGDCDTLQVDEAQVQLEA
UniProt Q9NYA1, whole entry: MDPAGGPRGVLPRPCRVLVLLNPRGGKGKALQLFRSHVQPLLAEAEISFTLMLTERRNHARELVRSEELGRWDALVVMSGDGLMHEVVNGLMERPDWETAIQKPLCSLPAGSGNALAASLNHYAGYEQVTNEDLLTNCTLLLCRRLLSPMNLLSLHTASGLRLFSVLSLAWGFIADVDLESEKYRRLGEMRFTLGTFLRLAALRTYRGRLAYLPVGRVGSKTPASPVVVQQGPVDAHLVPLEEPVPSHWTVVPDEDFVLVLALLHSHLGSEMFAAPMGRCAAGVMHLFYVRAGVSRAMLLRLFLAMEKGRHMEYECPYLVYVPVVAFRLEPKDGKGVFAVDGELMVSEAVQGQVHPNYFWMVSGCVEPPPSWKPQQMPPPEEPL
UniProt Q9Y6E0: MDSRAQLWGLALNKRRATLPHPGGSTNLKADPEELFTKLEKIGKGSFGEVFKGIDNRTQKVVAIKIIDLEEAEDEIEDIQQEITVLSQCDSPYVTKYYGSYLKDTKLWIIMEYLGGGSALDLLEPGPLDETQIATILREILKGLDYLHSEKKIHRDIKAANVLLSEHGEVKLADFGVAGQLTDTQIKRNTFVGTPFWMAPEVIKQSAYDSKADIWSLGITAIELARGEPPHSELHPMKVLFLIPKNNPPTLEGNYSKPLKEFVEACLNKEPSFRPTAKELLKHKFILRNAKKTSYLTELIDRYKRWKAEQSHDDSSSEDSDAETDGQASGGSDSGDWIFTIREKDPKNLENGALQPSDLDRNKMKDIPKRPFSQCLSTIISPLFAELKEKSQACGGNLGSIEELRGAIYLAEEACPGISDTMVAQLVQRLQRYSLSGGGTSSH
UniProt Q15208: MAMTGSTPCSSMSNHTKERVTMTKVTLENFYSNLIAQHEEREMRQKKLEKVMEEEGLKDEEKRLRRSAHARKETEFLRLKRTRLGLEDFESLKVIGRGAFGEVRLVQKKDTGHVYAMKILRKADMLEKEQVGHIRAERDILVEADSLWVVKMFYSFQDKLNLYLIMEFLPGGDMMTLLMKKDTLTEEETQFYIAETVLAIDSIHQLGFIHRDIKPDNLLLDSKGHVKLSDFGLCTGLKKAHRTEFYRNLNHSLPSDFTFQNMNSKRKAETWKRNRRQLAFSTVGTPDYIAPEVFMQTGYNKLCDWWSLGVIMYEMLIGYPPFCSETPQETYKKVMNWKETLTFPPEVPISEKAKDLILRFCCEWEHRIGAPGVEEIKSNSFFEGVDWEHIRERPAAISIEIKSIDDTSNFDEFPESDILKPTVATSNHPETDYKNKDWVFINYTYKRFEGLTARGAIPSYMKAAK
UniProt P42680: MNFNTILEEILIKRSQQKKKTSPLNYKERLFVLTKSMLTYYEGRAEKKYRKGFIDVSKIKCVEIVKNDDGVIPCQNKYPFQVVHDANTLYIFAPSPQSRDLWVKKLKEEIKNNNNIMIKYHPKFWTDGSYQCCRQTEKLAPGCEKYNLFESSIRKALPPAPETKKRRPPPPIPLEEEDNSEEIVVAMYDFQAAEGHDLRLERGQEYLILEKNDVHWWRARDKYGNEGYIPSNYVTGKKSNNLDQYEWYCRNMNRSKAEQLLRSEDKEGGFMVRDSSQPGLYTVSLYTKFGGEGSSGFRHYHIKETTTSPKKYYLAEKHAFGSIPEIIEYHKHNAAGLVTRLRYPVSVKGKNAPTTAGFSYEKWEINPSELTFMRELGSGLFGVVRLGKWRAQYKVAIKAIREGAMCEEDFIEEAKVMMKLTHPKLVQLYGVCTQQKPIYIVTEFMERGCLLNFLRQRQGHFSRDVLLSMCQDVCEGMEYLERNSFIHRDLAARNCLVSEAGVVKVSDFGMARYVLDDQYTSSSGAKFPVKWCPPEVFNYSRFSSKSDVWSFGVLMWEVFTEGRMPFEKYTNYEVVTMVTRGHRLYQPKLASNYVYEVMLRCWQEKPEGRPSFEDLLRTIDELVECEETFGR
UniProt P29597: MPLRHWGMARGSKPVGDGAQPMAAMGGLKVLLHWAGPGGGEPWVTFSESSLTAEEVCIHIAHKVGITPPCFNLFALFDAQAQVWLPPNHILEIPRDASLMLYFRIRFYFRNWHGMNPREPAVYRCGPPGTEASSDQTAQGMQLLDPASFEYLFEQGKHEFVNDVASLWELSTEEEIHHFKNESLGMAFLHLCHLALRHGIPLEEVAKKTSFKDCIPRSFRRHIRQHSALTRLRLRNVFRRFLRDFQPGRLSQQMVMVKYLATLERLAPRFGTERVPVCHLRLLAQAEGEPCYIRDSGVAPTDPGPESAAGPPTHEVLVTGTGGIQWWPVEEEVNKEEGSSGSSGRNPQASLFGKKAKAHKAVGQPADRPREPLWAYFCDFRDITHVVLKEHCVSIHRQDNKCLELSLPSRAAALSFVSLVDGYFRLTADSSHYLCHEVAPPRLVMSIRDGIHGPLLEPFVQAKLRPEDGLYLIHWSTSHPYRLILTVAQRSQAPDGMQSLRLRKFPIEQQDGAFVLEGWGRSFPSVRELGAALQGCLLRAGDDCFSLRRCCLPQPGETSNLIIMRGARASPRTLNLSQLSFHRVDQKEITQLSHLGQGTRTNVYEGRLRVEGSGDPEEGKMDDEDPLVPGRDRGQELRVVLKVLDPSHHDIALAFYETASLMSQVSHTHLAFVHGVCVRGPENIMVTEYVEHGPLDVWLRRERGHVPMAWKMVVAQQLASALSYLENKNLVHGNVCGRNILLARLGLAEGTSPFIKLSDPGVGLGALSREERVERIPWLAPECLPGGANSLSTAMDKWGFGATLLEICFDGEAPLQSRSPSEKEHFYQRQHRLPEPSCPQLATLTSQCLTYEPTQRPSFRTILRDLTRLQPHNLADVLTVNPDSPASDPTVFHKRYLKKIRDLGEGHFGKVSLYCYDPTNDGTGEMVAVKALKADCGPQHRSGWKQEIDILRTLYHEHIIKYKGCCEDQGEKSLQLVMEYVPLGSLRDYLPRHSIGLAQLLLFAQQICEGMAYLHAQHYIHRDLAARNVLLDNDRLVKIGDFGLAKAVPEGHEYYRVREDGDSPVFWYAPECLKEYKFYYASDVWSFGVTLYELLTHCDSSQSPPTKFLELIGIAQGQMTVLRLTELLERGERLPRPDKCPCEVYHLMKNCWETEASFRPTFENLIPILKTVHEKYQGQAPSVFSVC
UniProt Q6PHR2: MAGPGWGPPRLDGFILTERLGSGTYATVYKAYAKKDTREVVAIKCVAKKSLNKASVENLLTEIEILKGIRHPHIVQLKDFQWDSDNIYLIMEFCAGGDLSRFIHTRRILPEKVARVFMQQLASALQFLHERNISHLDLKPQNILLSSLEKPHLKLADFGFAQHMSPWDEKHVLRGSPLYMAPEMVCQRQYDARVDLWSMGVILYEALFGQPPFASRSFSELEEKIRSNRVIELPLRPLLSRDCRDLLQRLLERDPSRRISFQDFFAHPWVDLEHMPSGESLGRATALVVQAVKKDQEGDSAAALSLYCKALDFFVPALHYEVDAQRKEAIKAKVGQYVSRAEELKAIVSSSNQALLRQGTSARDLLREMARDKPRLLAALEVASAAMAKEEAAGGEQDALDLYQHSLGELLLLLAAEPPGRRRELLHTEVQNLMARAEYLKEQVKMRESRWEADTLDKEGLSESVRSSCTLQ
UniProt P07947, whole entry, looked up: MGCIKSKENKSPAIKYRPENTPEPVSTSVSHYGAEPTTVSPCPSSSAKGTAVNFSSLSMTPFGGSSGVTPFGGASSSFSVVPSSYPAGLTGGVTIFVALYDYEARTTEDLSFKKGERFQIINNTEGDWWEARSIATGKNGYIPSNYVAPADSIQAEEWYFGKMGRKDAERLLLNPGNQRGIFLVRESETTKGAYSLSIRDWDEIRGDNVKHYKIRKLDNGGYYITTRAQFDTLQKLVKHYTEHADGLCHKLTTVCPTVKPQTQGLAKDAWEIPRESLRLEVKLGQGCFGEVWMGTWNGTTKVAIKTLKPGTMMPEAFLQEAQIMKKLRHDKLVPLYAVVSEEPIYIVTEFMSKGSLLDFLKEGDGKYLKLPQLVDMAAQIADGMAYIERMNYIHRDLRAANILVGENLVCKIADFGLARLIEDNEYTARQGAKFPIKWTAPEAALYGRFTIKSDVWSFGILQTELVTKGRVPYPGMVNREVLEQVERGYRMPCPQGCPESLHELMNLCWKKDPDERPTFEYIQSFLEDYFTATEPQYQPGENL
UniProt P43403: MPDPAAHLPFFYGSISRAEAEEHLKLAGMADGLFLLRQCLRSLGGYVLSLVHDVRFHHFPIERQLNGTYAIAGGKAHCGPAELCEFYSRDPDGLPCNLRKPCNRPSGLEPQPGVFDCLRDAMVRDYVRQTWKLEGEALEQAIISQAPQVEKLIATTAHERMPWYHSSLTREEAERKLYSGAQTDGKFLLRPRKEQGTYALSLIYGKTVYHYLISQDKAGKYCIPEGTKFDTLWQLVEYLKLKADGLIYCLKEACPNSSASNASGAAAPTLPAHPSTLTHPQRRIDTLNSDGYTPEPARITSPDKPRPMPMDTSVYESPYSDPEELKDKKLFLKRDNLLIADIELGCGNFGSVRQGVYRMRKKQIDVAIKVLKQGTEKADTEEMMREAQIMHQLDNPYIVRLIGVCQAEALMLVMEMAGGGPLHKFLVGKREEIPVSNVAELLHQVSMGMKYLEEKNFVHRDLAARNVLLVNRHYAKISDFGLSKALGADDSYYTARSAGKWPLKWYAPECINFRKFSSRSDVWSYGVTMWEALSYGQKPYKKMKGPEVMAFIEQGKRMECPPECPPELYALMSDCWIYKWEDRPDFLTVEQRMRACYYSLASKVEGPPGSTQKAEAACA
UniProt P11802: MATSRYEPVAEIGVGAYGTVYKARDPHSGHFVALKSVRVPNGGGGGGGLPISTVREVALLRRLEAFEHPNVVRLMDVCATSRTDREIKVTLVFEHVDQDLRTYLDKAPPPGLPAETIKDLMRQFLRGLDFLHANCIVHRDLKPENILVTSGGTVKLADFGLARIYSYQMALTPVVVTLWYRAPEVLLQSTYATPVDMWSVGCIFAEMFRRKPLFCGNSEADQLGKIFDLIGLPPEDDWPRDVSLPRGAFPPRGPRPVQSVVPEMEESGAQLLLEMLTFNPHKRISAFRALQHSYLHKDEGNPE
UniProt P50750, whole entry: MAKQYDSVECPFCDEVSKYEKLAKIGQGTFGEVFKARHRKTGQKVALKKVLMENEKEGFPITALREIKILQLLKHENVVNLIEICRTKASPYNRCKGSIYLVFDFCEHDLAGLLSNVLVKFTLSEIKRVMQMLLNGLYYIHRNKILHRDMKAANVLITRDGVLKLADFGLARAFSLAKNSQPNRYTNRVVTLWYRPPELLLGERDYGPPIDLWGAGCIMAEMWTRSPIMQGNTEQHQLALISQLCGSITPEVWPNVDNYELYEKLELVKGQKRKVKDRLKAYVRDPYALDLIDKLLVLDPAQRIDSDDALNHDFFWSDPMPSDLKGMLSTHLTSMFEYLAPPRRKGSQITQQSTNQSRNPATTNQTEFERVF

Key:
Details in all cases: K562; 2-18 h
ROR2 = ROR2 (UniProt Q01974); test: number of time points (of 5) at which kinase-Nluc abundance scored as decreased, DMSO-normalised (count); higher = more persistent destabilization
RPS6KA1 = RPS6KA1 (UniProt Q15418); test: as above
SPHK1 = SPHK1 (UniProt Q9NYA1); test: as above
SRC = SRC (UniProt P12931); test: as above
STK24 = STK24 (UniProt Q9Y6E0); test: as above
STK38 = STK38 (UniProt Q15208); test: as above
SYK = SYK (UniProt P43405); test: as above
TEC = TEC (UniProt P42680); test: as above
TYK2 = TYK2 (UniProt P29597); test: as above
ULK3 = ULK3 (UniProt Q6PHR2); test: as above
YES1 = YES1 (UniProt P07947); test: as above
ZAK = ZAK (UniProt Q9NYL2); test: as above
ZAP70 = ZAP70 (UniProt P43403); test: as above
CDK4 = CDK4 (UniProt P11802); test: number of time points (of 4; 2 h point missing) at which kinase-Nluc abundance scored as decreased, DMSO-normalised (count); higher = more persistent destabilization
CDK7 = CDK7 (UniProt P50613); test: as above
CDK9 = CDK9 (UniProt P50750); test: as above

Row | SMILES | number of time points (ROR2) | number of time points (RPS6KA1) | number of time points (SPHK1) | number of time points (SRC) | number of time points (STK24) | number of time points (STK38) | number of time points (SYK) | number of time points (TEC) | number of time points (TYK2) | number of time points (ULK3) | number of time points (YES1) | number of time points (ZAK) | number of time points (ZAP70) | number of time points (CDK4) | number of time points (CDK7) | number of time points (CDK9)
1 | C=CC(=O)Nc1cc(Nc2ncc(Cl)c(-c3c[nH]c4ccccc34)n2)c(OC)cc1N(C)CCN(C)C [Mutant EGFR inhibitor] (2.5 µM) | 0 | 0 | 0 | 0 | 0 | 0 | 0 | 0 | 1 | 4 | 0 | 1 | 0 | 0 | 3 | 0
2 | C=CC(=O)Nc1cccc(Nc2nc(Nc3ccc(N4CCN(C(C)=O)CC4)cc3OC)ncc2C(F)(F)F)c1 [Rociletinib hydrobromide] (10 µM) | 0 | 0 | 0 | 0 | 0 | 0 | 0 | 0 | 0 | 0 | 0 | 0 | 0 | 0 | 0 | 0
3 | CCNc1nc(Nc2cc(F)c(C(=O)N3CCOCC3)cc2OC)ncc1C(F)(F)F [GNE-7915 (tosylate)] (10 µM) | 0 | 0 | 0 | 0 | 0 | 0 | 0 | 0 | 0 | 0 | 0 | 0 | 0 | 0 | 0 | 0
4 | CCCS(=O)(=O)Nc1ccc(F)c(C(=O)c2c[nH]c3ncc(-c4ccc(Cl)cc4)cc23)c1F [Vemurafenib] (10 µM) | 0 | 0 | 0 | 0 | 0 | 0 | 0 | 0 | 0 | 0 | 0 | 0 | 0 | 0 | 0 | 0
5 | CC#CC(=O)N1CC[C@@H](n2c(=O)n(-c3ccc(Oc4ccccc4)cc3)c3c(N)ncnc32)C1 [Tirabrutinib] (10 µM) | 0 | 0 | 0 | 0 | 0 | 0 | 0 | 0 | 0 | 0 | 0 | 0 | 0 | 0 | 0 | 0
6 | O=C(NOCC(O)CO)c1cc(Br)c(F)c(F)c1Nc1ccc(I)cc1F (stereo not drawn) (2.5 µM) | 0 | 0 | 0 | 0 | 0 | 0 | 0 | 0 | 0 | 0 | 0 | 0 | 0 | 0 | 0 | 0
7 | COc1ccc(OC)c(C2C(C#N)=C(N)Oc3n[nH]c(-c4ccc5ccccc5c4)c32)c1 (stereo not drawn) (10 µM) | 0 | 0 | 0 | 0 | 0 | 0 | 0 | 0 | 0 | 0 | 0 | 0 | 0 | 0 | 0 | 0
8 | Cn1nccc1Nc1nccc(-c2ccn([C@H](CO)c3ccc(Cl)c(F)c3)c(=O)c2)n1 [Ravoxertinib] (10 µM) | 0 | 0 | 0 | 0 | 0 | 0 | 0 | 0 | 0 | 0 | 0 | 0 | 0 | 0 | 0 | 0
9 | CN1CCN(c2cccc(Nc3nc4c(-c5ccc(S(C)(=O)=O)cc5)cccn4n3)c2)CC1 (10 µM) | 0 | 0 | 0 | 0 | 0 | 0 | 0 | 0 | 0 | 0 | 0 | 0 | 0 | 0 | 0 | 0
10 | C[C@@]1(c2ncncc2F)NC(=O)c2cc(-c3cn[nH]c3)ccc21 (10 µM) | 0 | 0 | 0 | 0 | 0 | 0 | 0 | 0 | 0 | 0 | 0 | 0 | 0 | 0 | 0 | 0
11 | CC#CC(=O)Nc1ccc2ncnc(Nc3cccc(Br)c3)c2c1 (10 µM) | 0 | 0 | 0 | 0 | 0 | 0 | 0 | 0 | 2 | 0 | 0 | 0 | 0 | 0 | 2 | 0
12 | COc1cc2c(N3CCN(C(=O)Nc4ccc(OC(C)C)cc4)CC3)ncnc2cc1OCCCN1CCCCC1 [Tandutinib (hydrochloride)] (10 µM) | 0 | 0 | 0 | 0 | 0 | 0 | 0 | 0 | 0 | 0 | 0 | 0 | 0 | 0 | 0 | 0
13 | Nc1nc2ccc(Cl)cc2c2nc(-c3ccco3)nn12 (10 µM) | 0 | 0 | 0 | 0 | 0 | 0 | 0 | 0 | 1 | 0 | 0 | 0 | 0 | 0 | 0 | 0
14 | CCc1cc2c(cc1N1CCC(N3CCOCC3)CC1)C(C)(C)c1[nH]c3cc(C#N)ccc3c1C2=O [Alectinib] (10 µM) | 0 | 0 | 0 | 0 | 0 | 0 | 0 | 0 | 0 | 0 | 0 | 0 | 0 | 0 | 0 | 0
15 | CC(=O)NC1CC(n2cnc(NC(=O)Cc3ccc4ccccc4c3)c2)C1 (stereo not drawn) (10 µM) | 0 | 0 | 0 | 0 | 0 | 0 | 0 | 0 | 0 | 0 | 0 | 0 | 0 | 0 | 0 | 0
16 | NC(=O)c1nc(Nc2ccccc2)sc1NC(=O)C1CCCCC1 (10 µM) | 0 | 0 | 0 | 0 | 0 | 0 | 0 | 0 | 0 | 0 | 0 | 0 | 0 | 0 | 0 | 0
17 | CC1=C(C(=O)O)N2C(=O)[C@@H](NC(=O)[C@H](N)C3=CCC=CC3)[C@H]2SC1 [Cephradine] (10 µM) | 0 | 0 | 0 | 0 | 0 | 0 | 0 | 0 | 0 | 0 | 0 | 0 | 0 | 0 | 0 | 0
18 | Nc1cc(C(F)(F)F)c(-c2cc(N3CCOCC3)nc(N3CCOCC3)n2)cn1 [Buparlisib (Hydrochloride)] (2.5 µM) | 1 | 0 | 0 | 0 | 0 | 0 | 0 | 0 | 2 | 0 | 0 | 0 | 0 | 0 | 0 | 0
19 | FC(F)(c1ccc2ncccc2c1)c1nnc2ccc(-c3ccncc3)nn12 (10 µM) | 0 | 0 | 0 | 0 | 0 | 0 | 0 | 0 | 0 | 0 | 0 | 0 | 0 | 0 | 0 | 0
20 | O=C1NC(=O)/C(=C\c2cccc(C(F)(F)F)c2)S1 (2.5 µM) | 0 | 0 | 0 | 0 | 0 | 0 | 0 | 0 | 0 | 0 | 0 | 0 | 0 | 0 | 0 | 0
21 | CN1CCC(c2cc(-c3ccncc3)c(-c3ccc(F)cc3)[nH]2)CC1 (10 µM) | 0 | 0 | 0 | 0 | 0 | 0 | 0 | 0 | 0 | 0 | 0 | 0 | 0 | 0 | 0 | 0
22 | S=C(SSC(=S)N1CCOCC1)N1CCOCC1 (10 µM) | 1 | 0 | 0 | 0 | 0 | 0 | 0 | 3 | 1 | 5 | 0 | 0 | 0 | 0 | 0 | 0
23 | O=C(O)CCC(=O)Nc1ccc(Br)cn1 [Bikinin] (10 µM) | 0 | 0 | 0 | 0 | 0 | 0 | 0 | 0 | 0 | 0 | 0 | 0 | 0 | 0 | 0 | 0
24 | Cn1cc(-c2cnn3c(N)c(Br)c([C@@H]4CCCNC4)nc23)cn1 (2.5 µM) | 0 | 0 | 0 | 0 | 1 | 0 | 0 | 1 | 1 | 1 | 1 | 1 | 0 | 0 | 2 | 1
25 | O=C(NCCN1CCCC1)c1cc(-c2ccc(CN3CCOCC3)cc2)nc2ccc(F)cc12 (10 µM) | 0 | 0 | 0 | 0 | 0 | 0 | 0 | 0 | 0 | 0 | 0 | 0 | 0 | 0 | 0 | 0
26 | COc1cc(Nc2ncc(F)c(Nc3ccc4c(n3)N(COP(=O)(O)O)C(=O)C(C)(C)O4)n2)cc(OC)c1OC [Fostamatinib Disodium] (10 µM) | 0 | 0 | 0 | 0 | 0 | 0 | 0 | 0 | 2 | 0 | 0 | 0 | 0 | 0 | 1 | 0
27 | Cc1cccc(-c2[nH]ncc2-c2ccc(F)c(-c3cnn(CCO)c3)c2)n1 (10 µM) | 0 | 0 | 0 | 0 | 0 | 0 | 0 | 0 | 0 | 0 | 0 | 0 | 0 | 0 | 0 | 0
28 | CNC(=O)c1cc(COc2nnc(Nc3ccc(Cl)cc3)c3ccoc23)ccn1 [Telatinib] (10 µM) | 0 | 0 | 0 | 0 | 0 | 0 | 0 | 0 | 0 | 0 | 0 | 0 | 0 | 0 | 0 | 0
